Measurements from article PMC3676391.
Results are given in words; binding and its absence hold for the method and conditions named. Binding seen in cells or lysates may run through a third protein. Some entries that bind do so weakly or less than the wild type. Tags and fused reporters may be left off the sequences shown.

B1: APPL1-NLuc (protein, UniProt Q9UKG1 1-709)
chain: MPGIDKLPIEETLEDSPQTRSLLGVFEEDATAISNYMNQLYQAMHRIYDAQNELSAATHLTSKLLKEYEKQRFPLGGDDEVMSSTLQQFSKVIDELSSCHAVLSTQLADAMMFPITQFKERDLKEILTLKEVFQIASNDHDAAINRYSRLSKKRENDKVKYEVTEDVYTSRKKQHQTMMHYFCALNTLQYKKKIALLEPLLGYMQAQISFFKMGSENLNEQLEEFLANIGTSVQNVRREMDSDIETMQQTIEDLEVASDPLYVPDPDPTKFPVNRNLTRKAGYLNARNKTGLVSSTWDRQFYFTQGGNLMSQARGDVAGGLAMDIDNCSVMAVDCEDRRYCFQITSFDGKKSSILQAESKKDHEEWICTINNISKQIYLSENPEETAARVNQSALEAVTPSPSFQQRHESLRPAAGQSRPPTARTSSSGSLGSESTNLAALSLDSLVAPDTPIQFDIISPVCEDQPGQAKAFGQGGRRTNPFGESGGSTKSETEDSILHQLFIVRFLGSMEVKSDDHPDVVYETMRQILAARAIHNIFRMTESHLLVTCDCLKLIDPQTQVTRLTFPLPCVVLYATHQENKRLFGFVLRTSSGRSESNLSSVCYIFESNNEGEKICDSVGLAKQIALHAELDRRASEKQKEIERVKEKQQKELNKQKQIEKDLEEQSRLIAASSRPNQASSEGQFVVLSSSQSEESDLGEGGKKRESEA
B2: Izh2p (receptor, UniProt Q12442 1-317)
chain: MSTLLERTKSVQELKKRAAGKTSANPAEVAKAKKVLRRLYSWDEIPEWQRDNDFILHGYVKETSSFIETFKSLFYLHNESVNIYSHLIPALGFFTVLLLDKSTIKVFATTTWLDHMVIDLFYSGAFACLILSSSFHCLKSHSLRIATLGNKLDYLGICILIVTSMVSILYYGYFEKFSLFCLFALITVSFGIACSIVSLKDKFRKREWRPYRAGLFVCFGLSSIIPIFSGLYCYSFSEIWTQIQLFWVLLGGVLYIIGAVLYGMRFPEKICPGKFDIWGHSHQLFHFLVVIAALCHLRGLLNSYELVHIKMENGIVS

How the values were obtained:
CLuc-AdipoR1 (human) [1] = molecular target: T1, CLuc-AdipoR1 (human) (UniProt Q96A54); experiment: split reporter; split firefly luciferase complementation in S. cerevisiae BY4741; CLuc-AdipoR1 (GAL1) and APPL1-NLuc (GAL10) from one plasmid pESC-URA-CLuc-AdipoR1-APPL1-NLuc; galactose induced; colonies imaged with a CCD camera after D-luciferin, cell suspensions in 0.1 M Na citrate pH 3.0 with 1 mM D-luciferin read in a microplate reader; no ligand added
T1 sequence: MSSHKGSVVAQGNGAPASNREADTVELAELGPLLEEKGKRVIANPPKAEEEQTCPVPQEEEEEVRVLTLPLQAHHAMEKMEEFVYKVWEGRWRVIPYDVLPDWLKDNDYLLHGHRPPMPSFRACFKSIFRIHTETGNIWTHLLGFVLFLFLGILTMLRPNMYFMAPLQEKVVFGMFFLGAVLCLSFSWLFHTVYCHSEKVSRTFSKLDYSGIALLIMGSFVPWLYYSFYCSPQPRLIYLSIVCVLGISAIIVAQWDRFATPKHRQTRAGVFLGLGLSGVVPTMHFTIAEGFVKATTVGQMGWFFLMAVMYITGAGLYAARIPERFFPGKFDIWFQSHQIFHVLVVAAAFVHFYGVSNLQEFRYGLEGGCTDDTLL

CLuc-AdipoR1 (human) [2] = molecular target: T1, CLuc-AdipoR1 (human); experiment: split reporter; split firefly luciferase complementation from pESC-URA-CLuc-AdipoR1-APPL1-NLuc compared in BY4741 (parent) and its isogenic izh2Δ and sip3Δ strains; cells grown 16 h at 30°C at 1%, 1.5% and 2% galactose
[3] = molecular target: T2, CLuc-IZH2 (S. cerevisiae) (UniProt Q12442); experiment: split reporter; split firefly luciferase complementation in BY4741 co-transformed with pESC-URA-CLuc-receptor (GAL1 promoter, galactose 0-2%) and p425GPD-APPL1-NLuc (constitutive GPD promoter); cells grown 16 h at 30°C
T2 sequence: B2 chain

APPL1-NLuc (human) = molecular target: T3, APPL1-NLuc (human) (UniProt Q9UKG1); experiment: split reporter; split firefly luciferase complementation from pESC-URA-CLuc-AdipoR1-APPL1-NLuc compared in BY4741 (parent) and its isogenic izh2Δ and sip3Δ strains; cells grown 16 h at 30°C at 1%, 1.5% and 2% galactose
T3 sequence: B1 chain

| Binder | binding (CLuc-AdipoR1 (human) [1]) | binding (CLuc-AdipoR1 (human) [2]) | binding [3] | binding (APPL1-NLuc (human)) |
| --- | --- | --- | --- | --- |
| B1 | binds | binds | binds |  |
| B2 |  |  |  | binds |
